Results are given in words; binding and its absence hold for the method and conditions named. Binding can be weak; no strength is given.
Target: T1, 4-Met substituted E. coli Cir (colicin Ia receptor), the paper's wildtype (WT) Cir (E. coli) (UniProt P17315)
T1 sequence: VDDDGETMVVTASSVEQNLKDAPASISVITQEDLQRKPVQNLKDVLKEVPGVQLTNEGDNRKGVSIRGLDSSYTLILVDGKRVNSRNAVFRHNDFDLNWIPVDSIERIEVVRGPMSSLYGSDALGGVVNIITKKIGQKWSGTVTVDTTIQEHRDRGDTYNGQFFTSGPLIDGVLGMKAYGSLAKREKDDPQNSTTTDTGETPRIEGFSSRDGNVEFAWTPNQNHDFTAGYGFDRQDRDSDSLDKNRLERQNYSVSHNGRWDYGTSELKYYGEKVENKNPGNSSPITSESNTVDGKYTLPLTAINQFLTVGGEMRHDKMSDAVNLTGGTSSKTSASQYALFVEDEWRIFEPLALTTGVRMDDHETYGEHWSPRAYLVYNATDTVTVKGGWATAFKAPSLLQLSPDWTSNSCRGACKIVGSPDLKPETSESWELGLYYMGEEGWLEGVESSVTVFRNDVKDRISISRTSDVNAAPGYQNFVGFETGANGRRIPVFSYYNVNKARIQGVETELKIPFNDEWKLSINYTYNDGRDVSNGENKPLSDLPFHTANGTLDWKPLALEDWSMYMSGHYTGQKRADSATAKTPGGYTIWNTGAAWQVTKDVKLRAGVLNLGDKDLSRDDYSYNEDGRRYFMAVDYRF
Test: SEC; refolded Colicin Ia R Domain added at four-fold excess to Cir in NAPol, 30 min at 4 C, complex purified on Superdex 200 Increase 10/300 GL in PBS pH 7.5, peak fractions analysed by SDS-PAGE; both purified

binding: binds
Substance: receptor binding domain (R Domain) of Colicin Ia (domain or fragment)
